Results published in patent US9393186B2 (Lipotec, S.A., priority 2006, dated 2016).
Square brackets hold non-standard residues; d marks the D form. Cit = NC(=O)NCCC[C@H](N)C(=O)O

Test: general procedure: Fmoc solid-phase peptide synthesis; Fmoc-AM-MBHA
Conditions: whole synthesis, gradient 5 to 95% MeCN (+0.07% TFA) in H2O (+0.1% TFA), scale 0.5 mmol

H-KDV[Cit]-NH2
crude HPLC purity: greater than 70%
